Measured values taken from PubChem BioAssay AID504467 (National Center for Advancing Translational Sciences (NCATS), 2011).
Screen size: about 330,000 compounds; about 7,700 (2.3%) were called active. Inconclusive results, whose numbers are uncertain, are shown with a selection of clear calls. Calls follow the shape of the dose curve; as a rule, active = well fitted inhibition curve with a large enough effect; inconclusive = small, poorly fitted or top-dose-only effect, or effect the other way; inactive = flat fitted curve, though single readings scatter. Potencies of inconclusive entries are doubtful fits and often do not repeat.

test: qHTS screen for small molecules that inhibit ELG1-dependent DNA repair in human embryonic kidney (HEK293T) cells expressing luciferase-tagged ELG1; conditions: HEK293T ELG1-luciferase reporter, luminescence, 16 h, DNA damage induced by 5-fluorouridine; activity change, negative = inhibition: at 46.1 µM (top of the series); also: nearly all actives have a fitted effect of over 55% in size
Outline: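 HEK293T cells expressing luciferase-tagged ELG1 (2,000/well) received 5-Fluorouridine plus compound or DMSO for 16 hr at 37 °C. Luciferase was read by ONE-Glo luminescence after 30 min at room temperature.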
% is scaled to controls: 0 for no effect and ±100 for the full control effect; potency is read from the fitted curve at half-maximal effect.

Row | Compound | Potency | activity change, negative = inhibition
1 | Cc1ccc(S(=O)(=O)N(Cc2ccccc2)c2ccccc2C(=O)NCc2ccco2)cc1 | inconclusive: 29.1 µM [inhibitor, single point] | –
2 | CCCCN1C(=O)/C(=C/C=C2\SCCN2C)SC1=S | inconclusive: 16.4 µM [activator, partial curve] | –
3 | COc1ccc(NC(=O)CCS(=O)(=O)c2ccc3c(c2)oc(=O)n3C)cc1 | – | inactive: 13.7%
4 | O=[N+]([O-])c1cccc(-c2noc(-c3ccco3)n2)c1 | inconclusive: 9.2 µM [activator, partial curve] | –
5 | CC(C)=CCC[C@](C)(O[C@@H]1O[C@H](CO[C@@H]2O[C@H](CO)[C@@H](O)[C@H](O)[C@H]2O)[C@@H](O)[C@H](O)[C@H]1O)C1CC[C@]2(C)C1C(=O)CC1[C@@]3(C)CC[C@H](O[C@H]4O[C@@H](CO)[C@H](O)[C@@H](O)[C@@H]4O)C(C)(C)C3CC[C@]12C (stereo not given in full) | inconclusive: 29.1 µM [activator, partial curve, poor fit] | –
6 | CN(Cc1ccccc1)C(=O)COc1cc(Cl)ccc1Cl | – | inactive: -7.48%
7 | O=C(O)C(c1ccccc1)N1C(=O)/C(=C\c2ccc(-c3ccccc3Cl)o2)SC1=S (stereo not given) | – | inactive: 2.44%
8 | COc1ccc(Nc2nc(-c3cccnc3)cs2)c(OC)c1 | inconclusive: 6.51 µM [activator, single point] | –
9 | Cc1ccc(OCCn2c(C)c(/C=N/n3cnnc3)c3ccccc32)cc1 | inconclusive: 14.6 µM [activator, single point] | –
10 | Cc1cc(C)n(-c2ccc(NC(=O)C3CCCCN3C(=O)c3ccc(C)s3)cc2)n1 (stereo not given) | – | inactive: -10.7%
11 | CN(C)C(=O)C(OC(=O)c1ccc2ccccc2n1)c1ccccc1 (stereo not given) | – | inactive: -10.3%
12 | CSc1ncccc1C(=O)NCC(c1cccs1)N1CCOCC1 (stereo not given) | – | inactive: 8.46%
13 | Cc1ccc(S(=O)(=O)N2CCN(c3ncnc4scc(-c5ccccc5)c34)CC2)cc1 | inconclusive: 13 µM [inhibitor, single point] | –
14 | COc1ccc(Nc2nc(N)nc(CN3CCC(C)CC3)n2)cc1 | inconclusive: 20.6 µM [activator, partial curve, poor fit] | –
15 | COc1ccc(NC(=O)C2CCCN(S(C)(=O)=O)C2)cc1Cl (stereo not given) | – | inactive: 18.4%
16 | CCn1cc(C(=O)NC(C)CCc2ccccc2)c(=O)c2cc(S(=O)(=O)N(C)C)ccc21 (stereo not given) | active: 20.6 µM | –
17 | Cc1cc(C)c(NC(=O)CSc2ccc(-c3ccccn3)nn2)c(C)c1 | – | inactive: -24.4%
18 | COC/C=C/C1=CC2=CC(=O)C(C)(OC(=O)c3cnc4ccccc4n3)C(=O)C2=CN1CCCCO (stereo not given) | – | inactive: 7.39%
19 | CC(C)C1C(C#N)=C(N)SC(N)=C1C#N | inconclusive: 18.4 µM [inhibitor, single point] | –
20 | Cc1ccc2nc(SCC(=O)NCC3CCCO3)c(C#N)cc2c1 (stereo not given) | – | inactive: 21.1%
21 | C/C(=N\NC(=O)c1ccncc1)c1ccc(NC(=O)c2ccc(Cl)cc2)cc1 | inconclusive: 11.6 µM [activator, partial curve] | –
22 | COCC[N+]1(C)CCCCC1 | – | inactive: 3.06%
23 | COc1cccc(CNc2cnc3ccccc3c2)c1O | inconclusive: 1.84 µM [activator, full curve] | –
24 | C/C(=N\NC(=O)c1ccco1)c1ccc(NC(=O)c2ccccc2)cc1 | inconclusive: 6.51 µM [activator, single point] | –

Given comma-delimited: 20 of the compounds above
Row,Compound,Potency,"activity change, negative = inhibition"
5,CC(C)=CCC[C@](C)(O[C@@H]1O[C@H](CO[C@@H]2O[C@H](CO)[C@@H](O)[C@H](O)[C@H]2O)[C@@H](O)[C@H](O)[C@H]1O)C1CC[C@]2(C)C1C(=O)CC1[C@@]3(C)CC[C@H](O[C@H]4O[C@@H](CO)[C@H](O)[C@@H](O)[C@@H]4O)C(C)(C)C3CC[C@]12C (stereo not given in full),"inconclusive: 29.1 µM [activator, partial curve, poor fit]",–
6,CN(Cc1ccccc1)C(=O)COc1cc(Cl)ccc1Cl,–,inactive: -7.48%
7,O=C(O)C(c1ccccc1)N1C(=O)/C(=C\c2ccc(-c3ccccc3Cl)o2)SC1=S (stereo not given),–,inactive: 2.44%
8,COc1ccc(Nc2nc(-c3cccnc3)cs2)c(OC)c1,"inconclusive: 6.51 µM [activator, single point]",–
9,Cc1ccc(OCCn2c(C)c(/C=N/n3cnnc3)c3ccccc32)cc1,"inconclusive: 14.6 µM [activator, single point]",–
10,Cc1cc(C)n(-c2ccc(NC(=O)C3CCCCN3C(=O)c3ccc(C)s3)cc2)n1 (stereo not given),–,inactive: -10.7%
11,CN(C)C(=O)C(OC(=O)c1ccc2ccccc2n1)c1ccccc1 (stereo not given),–,inactive: -10.3%
12,CSc1ncccc1C(=O)NCC(c1cccs1)N1CCOCC1 (stereo not given),–,inactive: 8.46%
13,Cc1ccc(S(=O)(=O)N2CCN(c3ncnc4scc(-c5ccccc5)c34)CC2)cc1,"inconclusive: 13 µM [inhibitor, single point]",–
14,COc1ccc(Nc2nc(N)nc(CN3CCC(C)CC3)n2)cc1,"inconclusive: 20.6 µM [activator, partial curve, poor fit]",–
15,COc1ccc(NC(=O)C2CCCN(S(C)(=O)=O)C2)cc1Cl (stereo not given),–,inactive: 18.4%
16,CCn1cc(C(=O)NC(C)CCc2ccccc2)c(=O)c2cc(S(=O)(=O)N(C)C)ccc21 (stereo not given),active: 20.6 µM,–
17,Cc1cc(C)c(NC(=O)CSc2ccc(-c3ccccn3)nn2)c(C)c1,–,inactive: -24.4%
18,COC/C=C/C1=CC2=CC(=O)C(C)(OC(=O)c3cnc4ccccc4n3)C(=O)C2=CN1CCCCO (stereo not given),–,inactive: 7.39%
19,CC(C)C1C(C#N)=C(N)SC(N)=C1C#N,"inconclusive: 18.4 µM [inhibitor, single point]",–
20,Cc1ccc2nc(SCC(=O)NCC3CCCO3)c(C#N)cc2c1 (stereo not given),–,inactive: 21.1%
21,C/C(=N\NC(=O)c1ccncc1)c1ccc(NC(=O)c2ccc(Cl)cc2)cc1,"inconclusive: 11.6 µM [activator, partial curve]",–
22,COCC[N+]1(C)CCCCC1,–,inactive: 3.06%
23,COc1cccc(CNc2cnc3ccccc3c2)c1O,"inconclusive: 1.84 µM [activator, full curve]",–
24,C/C(=N\NC(=O)c1ccco1)c1ccc(NC(=O)c2ccccc2)cc1,"inconclusive: 6.51 µM [activator, single point]",–

The listing continues:

Row | Compound | Potency | activity change, negative = inhibition
25 | CN1CCN(C(=O)CSc2nc3ccc(NC(=O)c4ccccc4F)cc3s2)CC1 | inconclusive: 29.1 µM [inhibitor, single point] | –
26 | CCOc1ccc2[nH]c(=O)c(CN(CCCN3CCOCC3)Cc3nnnn3Cc3ccc(OC)cc3)cc2c1 | – | inactive: 1.62%
27 | Cc1cccc(NC(=S)c2nc3ccccc3s2)c1 | inconclusive: 9.2 µM [activator, partial curve] | –
28 | Cc1cc(/C=N/NC(=O)c2ccccc2F)c(C)n1-c1ccccc1 | inconclusive: 5.8 µM [activator, partial curve] | –
29 | Cc1ccc(-c2nc3c(=O)n(C)c4ccccc4c3o2)cc1 | inconclusive: 23.1 µM [activator, single point] | –
30 | O=C(CN1CCN(C(c2ccccc2)c2ccccc2)CC1)Nc1ccc(N2CCOCC2)cc1 | – | inactive: -0.668%
31 | CCN(C(=O)CSc1cc(C)c2cccc(C)c2n1)C1CCS(=O)(=O)C1 (stereo not given) | – | inactive: 7.48%
32 | Cc1ccc(N2C(=O)[C@@H]3[C@H](C2=O)C2CCCN2[C@@H]3C(=O)c2ccccc2)cc1 (stereo not given in full) | inconclusive: 18.4 µM [activator, partial curve] | –
33 | CCOc1ccccc1NC(=O)c1nnn(CC(=O)Nc2cc(C)cc(C)c2)c1N | inconclusive: 29.1 µM [activator, partial curve, poor fit] | –
34 | Cc1nc(Nc2cnc(/C=C/c3cc(C(=O)Nc4cccc(C(F)(F)F)c4)ccc3C)cn2)cc(N2CCNCC2)n1 | inconclusive: 29.1 µM [inhibitor, single point] | –
35 | O=C(Nc1cccnc1)Nc1ccc2c(c1)OCO2 | inconclusive: 18.4 µM [activator, partial curve] | –
36 | COc1ccccc1CNC(=O)CSc1ccc(-c2cccc([N+](=O)[O-])c2)nn1 | inconclusive: 18.3 µM [inhibitor, partial curve, poor fit] | –
37 | CN(c1ccccc1)S(=O)(=O)c1cccc(C(=O)Nc2ccc3c(c2)CCC3)c1 | active: 14.6 µM | –
38 | Cc1ccc(Nc2ncccc2C(N)=O)cc1 | inconclusive: 18.4 µM [activator, partial curve] | –
39 | CCCCN(C(=O)NCCCCCCNC(=O)N(CCCC)C1CCS(=O)(=O)C1)C1CCS(=O)(=O)C1 (stereo not given) | – | inactive: 7.19%
40 | O=C(NCCCc1ccccc1)c1ccc(-n2cncn2)c([N+](=O)[O-])c1 | – | inactive: -9.89%
41 | COc1ccc([C@H]2CC(=O)C=C(c3cc(Cl)ccc3OC)C2)cc1 | inconclusive: 13 µM [inhibitor, partial curve, poor fit] | –
42 | C=CCNC(=O)/C(C#N)=C/c1c(C)nn(-c2ccccc2)c1Cl | – | inactive: -21.1%
43 | CCC(C)(C)NC(=O)/C=C/c1cnc2ccccc2n1 | inconclusive: 11.6 µM [activator, partial curve] | –
44 | CCOCCCNc1nc(C(F)(F)F)nc2c1nnn2Cc1ccccc1Cl | active: 18.3 µM | –
45 | CCOc1ccc(N2CC(C(=O)Nc3c(C)n(C)n(-c4ccccc4)c3=O)CC2=O)cc1 (stereo not given) | – | inactive: -1.65%
46 | CC(=O)c1cc(C(=O)Nc2ccccc2C(=O)O)oc1C | inconclusive: 20.6 µM [activator, partial curve, poor fit] | –
47 | O=C(c1ccncc1)c1ccc(NC(=O)c2cccs2)cc1 | inconclusive: 14.6 µM [inhibitor, single point] | –
48 | Cc1ccc(C(=O)OCC(=O)c2ccccc2)cc1 | inconclusive: 5.8 µM [activator, partial curve] | –

Row | Compound | Potency | activity change, negative = inhibition
49 | C=C1CC2C(CCC3(C)C2CCC3(O)C(C)=O)C2(C)CCC(=O)C=C12 (stereo not given) | inconclusive: 16.4 µM [inhibitor, single point] | –
50 | CCCCCOC(=O)C1=C(C)NC(=O)NC1c1ccc2c(c1)OCO2 (stereo not given) | – | inactive: -6.42%
51 | COc1cc(C)ccc1OCCON1C(=O)CCC1=O | – | inactive: 0%
52 | Cc1ccc(C(=O)Nc2ccc(N3CCN(C(=O)c4ccco4)CC3)cc2)cc1 | inconclusive: 14.6 µM [inhibitor, partial curve] | –
53 | Nn1cnc2scc(-c3ccco3)c2c1=O | – | inactive: -7.12%
54 | Cc1ccc(C(=O)/C=C/c2ccc(F)cc2)o1 | inconclusive: 29.1 µM [activator, single point] | –
55 | O=C(/C=C/c1ccc(Cl)cc1)N(c1ccccn1)C1CCCCC1 | inconclusive: 25.9 µM [inhibitor, single point] | –
56 | Cc1cccc(C(=O)Nc2cccc(NC(=O)c3ccccc3)c2)c1 | – | inactive: -29.9%
57 | O=C(CSc1nnc2n1CCCN2)c1ccc(Cl)cc1 | inconclusive: 32.6 µM [activator, partial curve, poor fit] | –
58 | C=CCOC(=O)C1=C[C@@H](c2csc3ccccc23)C[C@@H](OCc2ccc(CO)cc2)O1 | inconclusive: 18.3 µM [inhibitor, single point] | –
59 | O=C(c1cc(-c2cccnc2)nc2ccccc12)N1CCN(S(=O)(=O)c2cccs2)CC1 | inconclusive: 20.6 µM [inhibitor, partial curve] | –
60 | Nc1c(-c2ccccc2Cl)cnn1-c1cccc([N+](=O)[O-])c1 | inconclusive: 29.1 µM [inhibitor, single point] | –
61 | OCC1(Cc2ccccc2C(F)(F)F)CCN(Cc2cccc3cnccc23)CC1 | inconclusive: 32.6 µM [inhibitor, partial curve, poor fit] | –
62 | CC(C)N1CC(O)=C(c2nc3ccccc3[nH]2)C1=N | inconclusive: 18.4 µM [activator, partial curve] | –
63 | Cc1nc(C(=O)Nc2ccc(Cl)cc2)sc1C1(C)CC(c2ccccc2)=NO1 (stereo not given) | active: 18.3 µM | –
64 | Cc1cc(C(=O)CSc2nnc(-c3cccnc3)n2-c2ccccc2F)c(C)n1C | inconclusive: 23.1 µM [inhibitor, single point] | –
65 | CC1(c2ccc3ccccc3c2)NC(=O)N(CC(=O)N2CCN(Cc3ccc(C#N)cc3)CC2)C1=O (stereo not given) | – | inactive: -14.7%
66 | O=C(O)Cc1sc(Nc2ccccc2)nc1-c1ccc(Cl)cc1 | inconclusive: 23.1 µM [activator, single point] | –
67 | O=C(O)CNC(=O)/C=C/c1ccc(Cl)cc1Cl | – | inactive: 17.2%
68 | CC(=O)c1ccc(NC(=S)NC(=O)/C=C/c2ccccc2)cc1 | inconclusive: 20.6 µM [activator, partial curve] | –
69 | CC(OC(=O)c1ccccn1)C(=O)Nc1ccc2c(c1)OCCO2 (stereo not given) | inconclusive: 20.6 µM [activator, single point] | –
70 | O=C(CN1C(=O)S/C(=C\C=C\c2ccccc2)C1=O)N1CCOCC1 | inconclusive: 20.6 µM [activator, single point] | –
